The supplement of paper PMC10849652
Some of the results follow.

Amino acid sequences for entries named in this document (tags omitted). A change or cut given only in a name is not applied to a line headed by its entry.
UniProt Q2M3R5: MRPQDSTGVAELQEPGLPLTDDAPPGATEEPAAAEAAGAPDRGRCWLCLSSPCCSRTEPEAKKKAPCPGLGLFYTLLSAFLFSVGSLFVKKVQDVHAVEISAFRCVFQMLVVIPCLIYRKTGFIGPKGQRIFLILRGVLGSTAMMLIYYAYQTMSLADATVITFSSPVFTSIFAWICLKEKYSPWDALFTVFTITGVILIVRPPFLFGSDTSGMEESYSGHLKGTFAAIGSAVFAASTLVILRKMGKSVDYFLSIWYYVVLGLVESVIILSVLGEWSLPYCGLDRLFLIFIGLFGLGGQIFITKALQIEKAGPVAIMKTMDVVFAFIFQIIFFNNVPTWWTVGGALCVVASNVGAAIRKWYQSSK
UniProt Q9BRV3: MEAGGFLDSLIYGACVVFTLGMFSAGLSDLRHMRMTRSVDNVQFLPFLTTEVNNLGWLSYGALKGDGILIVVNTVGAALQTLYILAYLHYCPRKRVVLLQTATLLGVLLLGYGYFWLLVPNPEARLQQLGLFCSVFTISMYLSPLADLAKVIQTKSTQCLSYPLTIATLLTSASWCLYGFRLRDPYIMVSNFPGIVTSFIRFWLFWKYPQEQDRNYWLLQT
UniProt Q9NUM3: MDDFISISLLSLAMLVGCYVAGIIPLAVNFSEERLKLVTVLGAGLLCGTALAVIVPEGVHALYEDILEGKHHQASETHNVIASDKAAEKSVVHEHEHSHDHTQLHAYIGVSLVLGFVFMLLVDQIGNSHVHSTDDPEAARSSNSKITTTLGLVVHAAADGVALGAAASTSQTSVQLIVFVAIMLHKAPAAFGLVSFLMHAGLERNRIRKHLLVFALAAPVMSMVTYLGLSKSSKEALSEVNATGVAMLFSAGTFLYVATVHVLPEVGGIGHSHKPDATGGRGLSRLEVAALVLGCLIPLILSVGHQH
UniProt P50443: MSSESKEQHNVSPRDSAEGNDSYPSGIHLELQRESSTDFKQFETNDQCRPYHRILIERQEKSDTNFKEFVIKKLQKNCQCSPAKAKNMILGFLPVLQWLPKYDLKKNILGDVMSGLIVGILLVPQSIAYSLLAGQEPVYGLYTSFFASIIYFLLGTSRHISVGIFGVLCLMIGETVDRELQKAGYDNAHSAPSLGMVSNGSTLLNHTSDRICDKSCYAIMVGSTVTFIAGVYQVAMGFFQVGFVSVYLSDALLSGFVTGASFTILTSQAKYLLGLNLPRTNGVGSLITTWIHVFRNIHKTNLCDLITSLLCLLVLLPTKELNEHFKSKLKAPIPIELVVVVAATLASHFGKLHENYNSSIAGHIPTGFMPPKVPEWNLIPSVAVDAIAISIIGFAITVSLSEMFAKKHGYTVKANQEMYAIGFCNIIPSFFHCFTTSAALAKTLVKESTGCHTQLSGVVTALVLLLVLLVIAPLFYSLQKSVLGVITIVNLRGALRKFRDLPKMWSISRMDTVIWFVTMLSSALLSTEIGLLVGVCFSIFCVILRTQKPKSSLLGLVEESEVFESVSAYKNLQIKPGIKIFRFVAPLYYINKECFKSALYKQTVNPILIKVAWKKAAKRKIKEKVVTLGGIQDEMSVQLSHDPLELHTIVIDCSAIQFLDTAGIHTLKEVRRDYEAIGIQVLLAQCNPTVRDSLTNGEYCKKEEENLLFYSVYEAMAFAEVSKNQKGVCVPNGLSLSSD
UniProt Q8NBI5: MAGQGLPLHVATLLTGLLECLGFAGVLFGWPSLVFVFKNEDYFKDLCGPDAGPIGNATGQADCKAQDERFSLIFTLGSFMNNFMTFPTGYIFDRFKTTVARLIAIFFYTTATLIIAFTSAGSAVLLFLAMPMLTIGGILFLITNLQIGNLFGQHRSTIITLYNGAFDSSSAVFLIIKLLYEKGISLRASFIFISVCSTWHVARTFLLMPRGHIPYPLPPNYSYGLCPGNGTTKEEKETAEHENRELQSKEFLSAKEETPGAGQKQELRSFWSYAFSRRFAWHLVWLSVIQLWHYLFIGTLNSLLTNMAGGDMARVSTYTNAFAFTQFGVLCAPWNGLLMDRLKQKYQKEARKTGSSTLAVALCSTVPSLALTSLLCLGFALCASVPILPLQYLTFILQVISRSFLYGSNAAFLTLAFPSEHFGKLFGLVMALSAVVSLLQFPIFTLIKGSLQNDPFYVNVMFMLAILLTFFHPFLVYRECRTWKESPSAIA
UniProt Q8WV83: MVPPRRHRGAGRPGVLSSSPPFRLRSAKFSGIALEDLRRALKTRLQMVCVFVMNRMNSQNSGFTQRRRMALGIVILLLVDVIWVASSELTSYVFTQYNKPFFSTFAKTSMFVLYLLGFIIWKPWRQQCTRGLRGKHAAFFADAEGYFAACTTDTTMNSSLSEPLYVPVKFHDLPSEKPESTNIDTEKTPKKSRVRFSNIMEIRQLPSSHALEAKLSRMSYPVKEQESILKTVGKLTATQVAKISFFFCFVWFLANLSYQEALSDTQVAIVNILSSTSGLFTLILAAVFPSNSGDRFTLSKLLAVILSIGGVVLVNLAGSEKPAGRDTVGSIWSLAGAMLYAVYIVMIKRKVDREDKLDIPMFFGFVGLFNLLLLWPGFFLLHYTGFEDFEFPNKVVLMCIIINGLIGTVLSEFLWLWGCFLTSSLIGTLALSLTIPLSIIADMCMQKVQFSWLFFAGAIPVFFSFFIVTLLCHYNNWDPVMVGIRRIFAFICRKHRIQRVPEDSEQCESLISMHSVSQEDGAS
UniProt Q8N755: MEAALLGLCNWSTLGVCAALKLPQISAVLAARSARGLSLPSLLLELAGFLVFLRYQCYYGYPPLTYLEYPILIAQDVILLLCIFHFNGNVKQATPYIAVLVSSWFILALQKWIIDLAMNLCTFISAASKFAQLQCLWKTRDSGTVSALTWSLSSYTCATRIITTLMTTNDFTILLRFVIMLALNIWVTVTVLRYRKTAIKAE
UniProt Q9NVC3: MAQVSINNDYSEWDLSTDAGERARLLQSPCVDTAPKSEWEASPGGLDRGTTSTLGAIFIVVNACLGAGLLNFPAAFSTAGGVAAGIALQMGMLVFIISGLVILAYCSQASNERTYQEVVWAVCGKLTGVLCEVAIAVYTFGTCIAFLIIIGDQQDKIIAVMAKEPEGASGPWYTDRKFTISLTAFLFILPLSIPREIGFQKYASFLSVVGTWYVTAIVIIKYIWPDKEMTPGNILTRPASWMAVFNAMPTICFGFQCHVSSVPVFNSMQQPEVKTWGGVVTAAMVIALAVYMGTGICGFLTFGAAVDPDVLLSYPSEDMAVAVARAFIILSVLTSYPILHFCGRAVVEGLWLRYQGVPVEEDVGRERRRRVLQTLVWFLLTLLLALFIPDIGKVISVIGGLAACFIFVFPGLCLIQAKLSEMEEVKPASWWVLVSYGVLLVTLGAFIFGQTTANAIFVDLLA
UniProt Q9HAB3: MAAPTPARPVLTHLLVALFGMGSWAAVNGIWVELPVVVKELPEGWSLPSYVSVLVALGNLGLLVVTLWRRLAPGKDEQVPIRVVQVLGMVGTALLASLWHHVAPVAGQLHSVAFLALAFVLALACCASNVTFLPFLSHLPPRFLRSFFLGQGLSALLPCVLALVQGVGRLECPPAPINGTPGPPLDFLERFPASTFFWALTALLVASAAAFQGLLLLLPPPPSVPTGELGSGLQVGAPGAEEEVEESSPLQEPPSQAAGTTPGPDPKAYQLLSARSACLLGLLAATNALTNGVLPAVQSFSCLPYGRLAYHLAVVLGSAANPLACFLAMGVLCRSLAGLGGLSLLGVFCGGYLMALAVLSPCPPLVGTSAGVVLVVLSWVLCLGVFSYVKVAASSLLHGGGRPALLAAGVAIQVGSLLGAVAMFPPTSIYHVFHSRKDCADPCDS
UniProt F5GZS6: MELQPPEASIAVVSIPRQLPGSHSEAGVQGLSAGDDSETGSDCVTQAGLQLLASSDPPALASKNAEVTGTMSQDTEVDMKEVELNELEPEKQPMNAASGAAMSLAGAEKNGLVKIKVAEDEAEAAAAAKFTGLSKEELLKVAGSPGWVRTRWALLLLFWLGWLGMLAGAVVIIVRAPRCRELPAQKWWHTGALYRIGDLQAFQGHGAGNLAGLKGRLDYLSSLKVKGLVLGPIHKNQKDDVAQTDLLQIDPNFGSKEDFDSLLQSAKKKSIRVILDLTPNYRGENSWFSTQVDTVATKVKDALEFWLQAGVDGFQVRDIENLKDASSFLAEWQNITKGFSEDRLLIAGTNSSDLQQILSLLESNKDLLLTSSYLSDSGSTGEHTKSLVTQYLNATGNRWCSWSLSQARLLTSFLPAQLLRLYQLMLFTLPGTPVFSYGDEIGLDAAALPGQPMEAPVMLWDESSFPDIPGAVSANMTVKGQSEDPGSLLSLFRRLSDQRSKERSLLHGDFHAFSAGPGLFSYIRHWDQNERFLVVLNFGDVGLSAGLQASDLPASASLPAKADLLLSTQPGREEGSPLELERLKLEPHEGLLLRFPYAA
UniProt Q8N2U9: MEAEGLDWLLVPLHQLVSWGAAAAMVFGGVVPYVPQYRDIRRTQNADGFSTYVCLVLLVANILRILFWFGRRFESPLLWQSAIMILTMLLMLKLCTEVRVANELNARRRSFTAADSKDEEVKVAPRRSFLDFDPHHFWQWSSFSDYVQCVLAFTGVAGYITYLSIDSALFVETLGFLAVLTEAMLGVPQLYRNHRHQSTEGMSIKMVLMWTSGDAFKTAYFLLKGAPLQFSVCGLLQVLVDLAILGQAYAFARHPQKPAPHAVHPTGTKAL
UniProt A1A5C7: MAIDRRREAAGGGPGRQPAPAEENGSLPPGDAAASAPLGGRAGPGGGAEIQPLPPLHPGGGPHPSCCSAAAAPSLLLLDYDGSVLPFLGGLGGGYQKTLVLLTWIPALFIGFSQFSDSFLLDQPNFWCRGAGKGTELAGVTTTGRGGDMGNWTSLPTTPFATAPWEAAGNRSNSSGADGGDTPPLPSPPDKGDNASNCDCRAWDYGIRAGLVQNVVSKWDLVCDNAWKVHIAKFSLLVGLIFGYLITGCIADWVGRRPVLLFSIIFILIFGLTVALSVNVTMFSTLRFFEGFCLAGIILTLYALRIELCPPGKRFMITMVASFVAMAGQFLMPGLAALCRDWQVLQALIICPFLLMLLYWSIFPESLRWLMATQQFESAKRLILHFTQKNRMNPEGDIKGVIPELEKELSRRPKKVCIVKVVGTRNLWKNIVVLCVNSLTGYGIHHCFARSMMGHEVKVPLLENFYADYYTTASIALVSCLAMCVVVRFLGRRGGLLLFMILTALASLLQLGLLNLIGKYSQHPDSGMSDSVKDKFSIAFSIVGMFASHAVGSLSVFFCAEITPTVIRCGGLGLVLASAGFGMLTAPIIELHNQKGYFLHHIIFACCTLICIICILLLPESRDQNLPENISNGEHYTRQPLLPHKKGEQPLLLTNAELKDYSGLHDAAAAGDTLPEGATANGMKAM
UniProt P0CK96: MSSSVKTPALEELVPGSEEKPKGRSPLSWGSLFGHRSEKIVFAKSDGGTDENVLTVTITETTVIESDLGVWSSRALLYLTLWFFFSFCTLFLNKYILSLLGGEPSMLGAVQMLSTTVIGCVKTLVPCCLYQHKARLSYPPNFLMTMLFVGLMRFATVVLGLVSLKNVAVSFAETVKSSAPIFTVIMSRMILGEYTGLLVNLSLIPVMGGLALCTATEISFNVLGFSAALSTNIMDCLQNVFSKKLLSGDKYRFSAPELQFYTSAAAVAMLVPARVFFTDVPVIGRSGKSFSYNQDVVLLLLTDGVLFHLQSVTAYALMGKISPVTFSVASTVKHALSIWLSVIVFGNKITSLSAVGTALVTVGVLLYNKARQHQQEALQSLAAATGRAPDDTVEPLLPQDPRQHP
UniProt Q9NRA2: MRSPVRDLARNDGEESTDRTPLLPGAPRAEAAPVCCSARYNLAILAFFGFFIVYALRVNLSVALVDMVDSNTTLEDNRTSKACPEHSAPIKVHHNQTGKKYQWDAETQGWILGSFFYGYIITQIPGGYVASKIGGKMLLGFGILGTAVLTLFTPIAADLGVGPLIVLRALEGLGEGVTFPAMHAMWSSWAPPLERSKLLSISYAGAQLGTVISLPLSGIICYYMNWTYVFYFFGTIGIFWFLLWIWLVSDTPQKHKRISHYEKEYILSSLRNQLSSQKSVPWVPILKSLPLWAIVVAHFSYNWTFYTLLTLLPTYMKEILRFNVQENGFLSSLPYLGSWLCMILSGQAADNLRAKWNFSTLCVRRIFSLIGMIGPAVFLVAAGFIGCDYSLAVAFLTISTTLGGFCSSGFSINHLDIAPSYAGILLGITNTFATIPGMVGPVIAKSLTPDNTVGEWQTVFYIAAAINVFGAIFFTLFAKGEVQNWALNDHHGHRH
UniProt Q969S0: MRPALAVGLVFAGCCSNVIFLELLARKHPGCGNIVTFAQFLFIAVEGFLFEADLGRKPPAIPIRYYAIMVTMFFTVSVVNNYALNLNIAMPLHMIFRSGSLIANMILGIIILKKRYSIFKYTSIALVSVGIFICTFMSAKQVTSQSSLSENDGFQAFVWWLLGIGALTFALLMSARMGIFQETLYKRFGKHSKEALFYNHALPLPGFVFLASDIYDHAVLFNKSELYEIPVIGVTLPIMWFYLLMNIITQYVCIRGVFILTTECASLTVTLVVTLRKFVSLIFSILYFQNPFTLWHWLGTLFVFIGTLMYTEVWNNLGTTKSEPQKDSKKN

Tests used:
Assay in all cases: log2 fold change, soluble protein after heating vs DMSO (PISA); higher = thermal stabilisation; K562 cells, 10 uM, 30 min; active = over 0.2 and 3.5 SD of the protein, either way, in both replicates (recomputed)
[1] = compound: CN1CCc2c(c3ccccc3n2Cc2ccc(C(=O)NO)cc2)C1 [Tubastatin A]
Method in brief: (§1)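 K562 cells at 2×10^6 cells/mL were treated with 10 μM compound for 30 min. Aliquots were heated for 3 min across 48°C-58°C, pooled, and extracted in PBS with 0.5% NP-40 at 4°C; soluble protein was the supernatant after 21,000xg for 90 min. Soluble protein was quantified by TMTpro 16plex LC-MS/MS with channel sums equalised, and reported as log2 fold change in thermal stability against DMSO controls, with values from duplicates.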

[2] = compound: COc1cc(C(=O)O)ccc1NC(=O)[C@@H]1N[C@@H](CC(C)(C)C)[C@](C#N)(c2ccc(Cl)cc2F)[C@H]1c1cccc(Cl)c1F [idasanutlin]
Method in brief: as §1

[3] = compound: CN1CCN(CCOc2cc(OC3CCOCC3)c3c(Nc4c(Cl)ccc5c4OCO5)ncnc3c2)CC1 [saracatinib]
Method in brief: as §1

[4] = compound: CNC(=O)C1=CC=CC=C1NC2=NC(=NC=C2Cl)NC3=C(C=C(C=C3)N4CCOCC4)OC
Method in brief: as §1

[5] = compound: CNCc1ccc(-c2[nH]c3cc(F)cc4c3c2CCNC4=O)cc1 [rucaparib]
Method in brief: as §1

[6] = compound: CNc1nc(-c2ccc3c(N)n[nH]c3c2)cc(N2C[C@@H](C(=O)NC3CCCCC3)CC[C@H]2C)n1
Method in brief: as §1

[7] = compound: COC(=O)N[C@@H](C)CNc1nccc(-c2cn(C(C)C)nc2-c2cc(Cl)cc(NS(C)(=O)=O)c2F)n1 [encorafenib]
Method in brief: as §1

[8] = compound: COC1=CC=C(C=C1)CN2C=CC3=C2C=C(C=C3)C(=O)NO
Method in brief: as §1

[9] = compound: COc1cc(Nc2ncc3c(n2)-c2ccc(Cl)cc2C(c2c(F)cccc2OC)=NC3)ccc1C(=O)O [alisertib]
Method in brief: as §1

[10] = compound: COc1cc2nc(-c3cc(F)ccc3O)nc(N[C@@H]3CNC[C@H]3C(C)(C)O)c2cc1OC
Method in brief: as §1

[11] = compound: COc1cccc2cc(-c3nc([C@H]4CC[C@H](C(=O)O)CC4)n4ncnc(N)c34)[nH]c12
Method in brief: as §1

[12] = compound: CS(=O)(=O)CCNCc1ccc(-c2ccc3ncnc(Nc4ccc(OCc5cccc(F)c5)c(Cl)c4)c3c2)o1 [lapatinib]
Method in brief: as §1

[13] = compound: CN1CC[C@H](c2c(O)cc(O)c3c(=O)cc(-c4ccccc4Cl)oc23)[C@H](O)C1 [alvocidib]
Method in brief: as §1

[14] = compound: CNC(=O)c1ccc(Nc2ncc(C(F)(F)F)c(NCc3nccnc3N(C)S(C)(=O)=O)n2)cc1 [defactinib]
Method in brief: as §1

[15] = compound: COC(=O)[C@H](CCSC)NC(=O)C1=C(C=C(C=C1)NC[C@H](CS)N)C2=CC=CC=C2
Method in brief: as §1

[16] = compound: CO[C@H]1C[C@@H]2CC[C@@H](C)[C@@](O)(O2)C(=O)C(=O)N2CCCC[C@H]2C(=O)O[C@H]([C@H](C)C[C@@H]2CC[C@H](n3cnnn3)[C@H](OC)C2)CC(=O)[C@H](C)/C=C(\C)[C@@H](O)[C@@H](OC)C(=O)[C@H](C)C[C@H](C)/C=C/C=C/C=C/1C [zotarolimus]
Method in brief: as §1

[17] = compound: COc1cc2ncnc(Nc3ccc(F)c(Cl)c3)c2cc1OCCCN1CCOCC1 [gefitinib]
Method in brief: as §1

[18] = compound: CS(=O)(=O)N1CCN(Cc2cc3nc(-c4cccc5[nH]ncc45)nc(N4CCOCC4)c3s2)CC1 [pictilisib]
Method in brief: as §1

[19] = compound: CN1CCN(c2nc(C3=C(c4c[nH]c5ccccc45)C(=O)NC3=O)c3ccccc3n2)CC1 [sotrastaurin]
Method in brief: as §1

[20] = compound: CON(C)C(=O)N1N=C(c2cc(F)ccc2F)S[C@@]1(CCCN)c1ccccc1 [filanesib]
Method in brief: as §1

Measured: log2 fold change

SLC35G1 (UniProt Q2M3R5)
inactive: [1] -0.113 | [2] -0.172

SLC50A1 (UniProt Q9BRV3)
inactive: [3] 0.196 | [4] 0.18 | [5] -0.261 | [6] -0.106 | [7] 0.051 | [8] -0.104 | [2] -0.313 | [9] -0.132 | [10] 0.379 | [11] 0.039 | [12] 0.367

SLC39A9 (UniProt Q9NUM3)
inactive: [13] -0.35 | [1] 0.286 | [14] -0.037 | [15] -0.118 | [16] 0.1

SLC26A2 (UniProt P50443)
inactive: [3] -0.079 | [14] 0.02 | [6] 0.032 | [15] 0.027 | [8] -0.04 | [9] -0.36 | [17] -0.134 | [11] -0.037 | [18] 0.051

SLC43A3 (UniProt Q8NBI5)
inactive: [19] -0.027 | [20] 0.269 | [10] 0.045 | [12] 0.03

SLC35F5 (UniProt Q8WV83)
inactive: [19] 0.082 | [8] -0.445 | [20] 0.057 | [10] 0.154 | [17] -0.093 | [12] -0.292 | [18] 0.104

SLC66A3 (UniProt Q8N755)
inactive: [19] 0.09 | [4] 0.097 | [20] 0.025 | [9] -0.024 | [17] -0.077 | [11] 0.066

SLC38A7 (UniProt Q9NVC3)
inactive: [19] 0.152 | [1] -0.177 | [4] -0.052 | [14] -0.126 | [5] 0.004 | [7] 0.016 | [15] -0.261 | [8] -0.042 | [20] -0.098 | [16] 0.095 | [2] -0.077 | [9] -0.136 | [10] 0.01 | [17] 0.035 | [11] 0.069 | [12] -0.057 | [18] 0.022

Two successive entries from above, for reference:
SLC43A3 (UniProt Q8NBI5)
inactive: [19] -0.027 | [20] 0.269 | [10] 0.045 | [12] 0.03

SLC35F5 (UniProt Q8WV83)
inactive: [19] 0.082 | [8] -0.445 | [20] 0.057 | [10] 0.154 | [17] -0.093 | [12] -0.292 | [18] 0.104

Later entries

SLC52A2 (UniProt Q9HAB3)
inactive: [1] -0.258 | [4] 0.126 | [5] 0.011 | [7] 0.05 | [9] -0.279 | [17] 0.092 | [11] 0.073 | [18] 0.142

SLC3A2 (UniProt F5GZS6)
inactive: [3] 0.174 | [1] -0.118 | [4] 0 | [14] 0.31 | [5] 0.172 | [6] -0.129 | [7] 0.14 | [15] 0.073 | [8] -0.085 | [2] -0.119 | [9] -0.017 | [10] 0.029 | [17] -0.025 | [11] 0.043 | [12] 0.033

SLC66A2 (UniProt Q8N2U9)
inactive: [4] 0.053 | [9] -0.002 | [17] 0.139 | [11] -0.281

SLC22A23 (UniProt A1A5C7)
inactive: [3] -0.268 | [13] -0.019 | [4] -0.014 | [5] 0.06 | [6] -0.109 | [7] 0.032 | [8] -0.037 | [16] 0.178 | [9] 0.059 | [10] 0.25 | [11] -0.042 | [12] -0.167 | [18] -0.036

SLC35E2B (UniProt P0CK96)
inactive: [19] 0.114 | [13] 0.108 | [14] 0.109 | [15] 0.083 | [8] 0.101 | [20] 0.021 | [16] -0.151 | [9] -0.071 | [10] 0.005 | [11] -0.027 | [12] 0.08

SLC17A5 (UniProt Q9NRA2)
inactive: [19] -0.037 | [4] -0.008 | [5] -0.102 | [7] 0.009 | [8] -0.037 | [20] -0.165 | [2] 0.052 | [10] -0.045 | [12] 0.114

SLC35B4 (UniProt Q969S0)
inactive: [19] 0.012 | [1] 0.014 | [4] 0.046 | [14] 0.086 | [5] 0.036 | [7] -0.015 | [15] -0.146 | [8] -0.076 | [20] -0.119 | [2] 0.027 | [9] 0.032 | [17] 0.149 | [11] 0.076
